In PMC6972792:
For at least one entry, the source does not settle the construct or the ends of the probe. A weaker result is weaker than the reference pair of the same experiment. At least one verdict was read from the data and is not stated in words by the source.

Molecular target: PU.1 (MST prep) (Homo sapiens) (UniProt P17947)
Assay: MST
Conditions: MST: 50 nM DNA, PU.1 dilution series, buffer not given, recombinant protein, label: Cy3 on one strand
[1] = unmodified, protein details: N-terminal His

ACGTAAAGAGGAAGCGACGT (double strand) [5C_distal]
binding result [1]: binds

ACGTAAAGAGGAAGCGACGT (double strand) [5hmC_distal_sense]
binding result (5hmC does not interfere, 5hmC at position 15 of strand 1, protein details: N-terminal His): binds

ACGTAAAGAGGAAGCGACGT (double strand) [5mC_distal_sense]
binding result (5mC does not interfere, 5mC at position 15 of strand 1, protein details: N-terminal His): binds

ACGTGAAGCGGAAGTGACGT (double strand) [5C_proximal]
binding result [1]: binds

ACGTGAAGCGGAAGTGACGT (double strand) [5hmC_proximal antisense-hydroxymethylated]
binding result (5hmC on antisense strand only, 5hmC on strand 2 at the CpG (opposite position 10 of strand 1), protein details: N-terminal His, letters put together from the description): binds

ACGTGAAGCGGAAGTGACGT (double strand) [5hmC_proximal_sense]
binding result (5hmC on sense strand, 5hmC at position 9 of strand 1, protein details: N-terminal His): binds more weakly

ACGTGAAGCGGAAGTGACGT (double strand) [5mC_proximal antisense-methylated]
binding result (5mC on antisense strand only, 5mC on strand 2 at the CpG (opposite position 10 of strand 1), protein details: N-terminal His, letters put together from the description): binds

ACGTGAAGCGGAAGTGACGT (double strand) [5mC_proximal_sense]
binding result (5mC on sense strand, 5mC at position 9 of strand 1, protein details: N-terminal …): binds more weakly
